Primary screen of a compound library

Chains of the proteins cited; added tags and fusions are not shown. Residues count along the entry.
UniProt Q8IDJ8, 1-583: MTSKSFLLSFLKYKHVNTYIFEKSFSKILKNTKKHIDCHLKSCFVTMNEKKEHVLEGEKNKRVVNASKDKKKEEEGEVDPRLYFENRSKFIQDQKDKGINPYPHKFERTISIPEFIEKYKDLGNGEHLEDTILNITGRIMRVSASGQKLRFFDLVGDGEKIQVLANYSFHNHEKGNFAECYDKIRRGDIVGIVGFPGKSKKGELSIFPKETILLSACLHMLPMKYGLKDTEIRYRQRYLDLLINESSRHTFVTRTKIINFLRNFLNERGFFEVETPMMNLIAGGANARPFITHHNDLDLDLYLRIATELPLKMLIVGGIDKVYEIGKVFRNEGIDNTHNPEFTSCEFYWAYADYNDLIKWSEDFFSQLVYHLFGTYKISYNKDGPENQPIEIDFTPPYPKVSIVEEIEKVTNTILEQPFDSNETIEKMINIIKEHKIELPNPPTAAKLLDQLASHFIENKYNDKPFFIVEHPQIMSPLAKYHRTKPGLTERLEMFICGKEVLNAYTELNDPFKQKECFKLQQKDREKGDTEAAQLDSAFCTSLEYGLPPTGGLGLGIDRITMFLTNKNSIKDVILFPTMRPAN
UniProt I6X8D2, whole entry: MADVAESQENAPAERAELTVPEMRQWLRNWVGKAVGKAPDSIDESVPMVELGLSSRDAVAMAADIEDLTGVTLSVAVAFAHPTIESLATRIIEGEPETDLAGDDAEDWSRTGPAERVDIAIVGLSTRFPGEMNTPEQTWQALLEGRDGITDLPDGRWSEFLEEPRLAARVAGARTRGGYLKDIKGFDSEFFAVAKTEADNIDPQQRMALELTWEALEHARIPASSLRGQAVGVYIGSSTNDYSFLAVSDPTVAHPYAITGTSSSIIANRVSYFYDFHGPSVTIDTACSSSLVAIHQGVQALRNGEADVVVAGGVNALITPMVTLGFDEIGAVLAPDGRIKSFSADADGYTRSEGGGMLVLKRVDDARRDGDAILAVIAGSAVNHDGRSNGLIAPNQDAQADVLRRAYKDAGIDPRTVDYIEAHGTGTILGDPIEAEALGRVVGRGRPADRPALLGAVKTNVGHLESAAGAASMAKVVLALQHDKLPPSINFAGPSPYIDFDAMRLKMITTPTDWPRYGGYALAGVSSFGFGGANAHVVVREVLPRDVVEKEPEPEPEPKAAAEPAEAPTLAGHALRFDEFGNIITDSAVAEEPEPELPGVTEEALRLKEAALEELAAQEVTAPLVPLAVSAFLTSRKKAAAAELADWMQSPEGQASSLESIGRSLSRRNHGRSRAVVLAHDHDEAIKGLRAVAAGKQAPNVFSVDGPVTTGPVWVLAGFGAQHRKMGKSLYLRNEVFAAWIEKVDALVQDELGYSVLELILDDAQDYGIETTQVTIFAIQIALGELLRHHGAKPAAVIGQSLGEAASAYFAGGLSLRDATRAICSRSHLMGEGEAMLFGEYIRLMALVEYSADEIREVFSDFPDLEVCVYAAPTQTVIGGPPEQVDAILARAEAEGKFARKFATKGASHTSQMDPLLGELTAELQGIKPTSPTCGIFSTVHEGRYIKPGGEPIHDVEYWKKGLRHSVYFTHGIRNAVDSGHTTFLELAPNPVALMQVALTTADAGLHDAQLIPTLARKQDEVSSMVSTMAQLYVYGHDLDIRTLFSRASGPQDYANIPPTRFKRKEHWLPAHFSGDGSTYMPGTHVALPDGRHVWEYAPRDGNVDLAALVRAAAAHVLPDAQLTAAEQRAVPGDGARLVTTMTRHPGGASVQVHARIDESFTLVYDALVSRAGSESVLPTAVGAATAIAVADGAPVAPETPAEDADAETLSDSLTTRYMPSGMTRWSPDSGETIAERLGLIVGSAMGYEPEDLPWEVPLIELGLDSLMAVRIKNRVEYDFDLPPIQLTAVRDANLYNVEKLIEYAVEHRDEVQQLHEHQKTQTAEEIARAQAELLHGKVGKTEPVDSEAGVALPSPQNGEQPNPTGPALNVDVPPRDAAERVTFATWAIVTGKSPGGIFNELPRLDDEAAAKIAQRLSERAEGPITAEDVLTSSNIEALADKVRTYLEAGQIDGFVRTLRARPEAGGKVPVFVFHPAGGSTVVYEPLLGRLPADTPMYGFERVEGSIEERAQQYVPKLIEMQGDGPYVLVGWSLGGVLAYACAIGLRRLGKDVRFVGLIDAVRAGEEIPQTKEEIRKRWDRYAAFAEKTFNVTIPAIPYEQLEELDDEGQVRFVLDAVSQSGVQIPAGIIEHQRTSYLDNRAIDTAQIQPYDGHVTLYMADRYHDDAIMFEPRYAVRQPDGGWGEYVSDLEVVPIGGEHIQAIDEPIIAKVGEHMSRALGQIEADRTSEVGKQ
UniProt P9WPC5, whole entry: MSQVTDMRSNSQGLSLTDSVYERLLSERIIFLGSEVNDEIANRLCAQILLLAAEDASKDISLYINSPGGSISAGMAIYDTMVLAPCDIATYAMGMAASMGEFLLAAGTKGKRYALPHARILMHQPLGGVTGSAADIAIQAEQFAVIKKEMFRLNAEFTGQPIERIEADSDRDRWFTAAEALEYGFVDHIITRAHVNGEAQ
UniProt P9WPC3, whole entry partner: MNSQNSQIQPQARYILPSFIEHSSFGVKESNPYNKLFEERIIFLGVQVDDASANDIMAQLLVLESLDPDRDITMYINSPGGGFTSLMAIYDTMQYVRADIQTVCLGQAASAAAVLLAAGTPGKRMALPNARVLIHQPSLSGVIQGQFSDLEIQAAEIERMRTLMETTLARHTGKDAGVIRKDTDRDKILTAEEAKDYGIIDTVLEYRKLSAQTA

From ChEMBL document CHEMBL3988442, “University of Dundee, Small-Polar-MMV Screening Library” (2021).

PfKRS1: 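Enzyme assay of the cytosolic lysyl-tRNA synthetase in 384-well plates, read by luminescence. Target: Lysine-tRNA ligase, Plasmodium falciparum 3D7 (UniProt Q8IDJ8). Concentration: 30 µM. Higher reads as stronger inhibition, judged from the few compounds that gave an IC50. Size under these conditions: about 69,000 compounds, about 49 of them at 50% or above in at least one test.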
Pks13 thioesterase: 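Polyketide synthase Pks13, Mycobacterium tuberculosis (UniProt I6X8D2). Enzyme assay of the thioesterase domain of polyketide synthase 13; the read-out is not stated. Compounds at 30 µM. The record gives no direction; the compounds picked for IC50 retests had high values, so higher reads as stronger inhibition. About 67,000 compounds were tested under these conditions; 0.46% (about 300) showed 50% or more at least once.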
ClpP1P2: 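ClpP1P2, Mycobacterium tuberculosis (UniProt P9WPC5 and UniProt P9WPC3). Protease assay of ClpP1P2, read by the AMC dye that it sets free. Concentration: 50 µM. Direction is inferred from only a few compounds that gave an IC50; most scored high, so higher reads as stronger inhibition. Most other retested compounds had strongly negative values. Of about 69,000 compounds tested this way, about 10 (0.015%) reached 50% or more in at least one test.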

Results are given as percent effect. How 0% and 100% were set is not recorded. Most values in the screen are low, and negative values occur. Compounds were drawn at random from those tested, without regard to their results. A dash means the value is not listed here; it may have been measured.

Compound | PfKRS1 | Pks13 thioesterase | ClpP1P2
Cn1ccc(CN2CCC3(CC2)CC(Nc2cnccn2)CO3)n1 (stereo not drawn) | 5.061 | -27.18 | -7.513
Cc1ccsc1-c1cccc(-c2ccn(CC3CCNC3)n2)c1 (stereo not drawn) | -6.16 | -19.4 | -21.29
CCc1nc(CN(C(C)=O)C2CCN(CCc3ccncc3)C2)no1 (stereo not drawn) | -0.4867 | -4.838 | -23.23
CN1CCc2c(CNC(=O)c3nccn3C)cncc2C1 | -0.4659 | - | -3.652
O=C(c1cccc(CNCC2CNc3ccnn3C2)c1)N1CCCC1 (stereo not drawn) | -3.218 | -12.67 | 7.206
O=C(c1ccoc1)N1CCC(NCc2cccnc2)CC1 | 4.812 | 5.114 | 9.82
COc1ccc(N(c2ccccc2)c2ccc(C(=O)O)s2)cc1 | 3.906 | 34.14 | 1.273
CN(C)c1ccc(CCCNC(=O)NCC(O)c2ccsc2)cc1 (stereo not drawn) | 1.509 | -1.943 | -1.178
CCNC(=O)COc1cc(CC)c2c(C)nn(-c3ccc(C)cc3)c2n1 | 2.58 | -15.56 | -7.992
CCN1CCC(CC(=O)N[C@H](C(=O)O)c2cccc(F)c2F)CC1 | 2.507 | -12.25 | -7.712
O=C(COc1ccc2c(c1)CCC2)N1CCCC1c1ccc[nH]1 (stereo not drawn) | 1.797 | 13.44 | -5.499
COc1ccccc1C(=O)NCCC(=O)Nc1c(C)nn(C)c1C | 0.5528 | -15.43 | -5.366
CCN1C[C@H]2CCN(c3ncccn3)CC[C@H]2S1(=O)=O | 9.209 | -29.18 | -7.114
c1csc(CNCC2COCc3c(-c4ccsc4)nnn3C2)n1 (stereo not drawn) | 8.597 | -14.67 | -5.032
CN(CC(=O)N1CCCCC1Cn1cccn1)C1CC1 (stereo not drawn) | -1.921 | -24.94 | 13.12
CSCC(=O)N[C@H]1CN(CC2CCOCC2)C[C@@H]1c1ccccc1 | 1.236 | 2.661 | -10.7
O=C1CO[C@H]2CCN(C(=O)c3ccc4c(c3)CCCC4)CC[C@@H]2N1 | 2.333 | 10.71 | -12.47
Cc1nc2ccc(C(=O)N3C[C@@H](O)[C@H](N4CCCC4)C3)cc2[nH]1 | 3.003 | 4.954 | 2.585
CC1c2ncc(CN3CCN(C)CC3)n2CCN1Cc1ccc(F)cc1 (stereo not drawn) | 2.385 | -5.394 | -14.42
CCn1cc(NC(=O)NCC(O)c2ccccc2)cn1 (stereo not drawn) | 11.01 | -30.93 | 3.808
CCCNC(=O)Cn1c(-n2nc(C)cc2C)nc(CCC)cc1=O | 1.384 | 5.431 | 4.414
O=S(=O)(NC[C@]12COC[C@H]1CN(c1ncc(F)cn1)C2)C1CC1 | 3.864 | -10.27 | -0.3841
Cn1cc(CN2CCO[C@H]3CN(Cc4ccsc4)C[C@H]32)cn1 | 1.992 | -11.83 | 3.532
CCCNC(=O)C1(Cc2cc(-c3ccccc3)no2)CCN(C(C)=O)C1 (stereo not drawn) | -2.067 | -22.11 | -2.804
COC(=O)N1CCC(Nc2cccc(F)c2C#N)CC1 | 1.298 | -5.808 | -2.322
Cc1cc(NC(=O)c2nc(N3CCCC3)ncc2Cl)ccc1Br | 1.81 | -14.23 | 9.1
CC(C)NC(=O)N[C@H]1C[C@@H](c2nc(-c3ccc(F)cc3)no2)N(C)C1 | 4.388 | -7.876 | 2.685
O=C(NCc1ccccn1)NC1CCOc2ccccc21 (stereo not drawn) | -3.762 | -11.98 | 4.815
Fc1cccc(OC2CCN(Cc3ncc[nH]3)CC2)c1 | 0.5166 | -15.32 | -0.895
COCC(=O)Nc1nnc2n(Cc3cccc(OC)c3)[nH]c(C)c1-2 | 4.241 | -21.74 | 6.998
CCn1ncc(-c2nc3c[nH]n(CC)c-3n2)c1C | 3.417 | -3.055 | -12.53
CS(=O)(=O)Cc1ccc(Cl)c(NCc2noc(C3CC3)n2)c1 | 5.581 | -41.35 | -13.18
Cc1csc(CN2CC[C@H]3C[C@H](C)O[C@@H]3C2)n1 | 5.631 | -1.904 | -12.04
Cc1cccc(CN(C)Cc2nc3c(cnn3C)c(=O)[nH]2)c1 | 4.883 | -8.018 | -0.7366
COC(=O)C(C)(C)NC(=O)C1CC(=O)N(CC(F)(F)F)C1 (stereo not drawn) | -0.7458 | -3.169 | 7.628
O=C(CNC(=O)c1ccccc1Cl)Nc1nccs1 | 4.207 | -11.67 | 10.41
O=C(NCc1cccnc1)c1nc2c(s1)CCCN2c1ncccn1 | 1.412 | 5.008 | -6.591
CC(C)(C)OC(=O)NCC1CCCCN1Cc1cccc(C(N)=O)c1 (stereo not drawn) | 1.212 | -22.27 | -2.738
O=C(Cc1cnc(-c2c(Cl)cccc2Cl)s1)N1CCOCC1 | -8.901 | -4.093 | -11.43
Cc1cc(C)n(CC2CN(Cc3noc(C)n3)CCO2)n1 (stereo not drawn) | -2.68 | -19.27 | 2.116

3 of the entries, repeated:

Compound,PfKRS1,Pks13 thioesterase,ClpP1P2
CC(C)(C)OC(=O)NCC1CCCCN1Cc1cccc(C(N)=O)c1 (stereo not drawn),1.212,-22.27,-2.738
CCn1cc(NC(=O)NCC(O)c2ccccc2)cn1 (stereo not drawn),11.01,-30.93,3.808
Cc1ccsc1-c1cccc(-c2ccn(CC3CCNC3)n2)c1 (stereo not drawn),-6.16,-19.4,-21.29